The source of these data is PubChem BioAssay AID1347423 (Functional Genomics Laboratory (NCATS/FGL), 2020).

Among all 52,000 sequences or so, about 210 (0.4%) were called active.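 How the source made its calls: active means gene whose silencing raises cell survival under the drug, median off-target-corrected z-score across its silencing RNAs 2 or more; inactive means the rest.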 Some of the results follow.

The nature of this assay: Resistance to Poly (ADP-Ribose) Polymerase inhibitor: Gene Identification via Genome-wide siRNA Screen. To be noted: mouse BRCA2 R2336H ES cells, olaparib, CellTiter-Glo viability; hits give high values. The essentials: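 Mouse BRCA2 R2336H ES cells were reverse-transfected with siRNA (20 nM final), treated at 48 h with 500 nM olaparib, and read by CellTiter-Glo after 72 h. Scores: MAD-based z per siRNA, median per gene, seed off-target correction.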
In the case of “GGGAAUCCUCAAAUAAAGCTT against 1810062O14Rik”, the z-score is inactive: -0.154.
Take “CCGAGAACCUUAAACUCCCTT against 4921515A04Rik”: the z-score was inactive: -0.567.
The same measure for “GGUUGGGAGACCCAAUCUGTT against 6430559E15Rik”: inactive: 1.69; for GGAGAGAAAAAGUAAUAUCTT against Fgf1: inactive: -0.941; for GUAAUCUUCACCGCCUCUCTT against Olfr315: inactive: 1.85.
For “CCCAGAAGGAUCUGCUCUUTT against 2010016F14Rik”, the z-score is inactive: -0.246.
GUCUUCCGGACAAGACAUATT against Hoxa6: the z-score was inactive: 0.439.
For the sequence GGAUGAGGAUUUUGAUUGGTT against Tce1, the z-score is inactive: 0.402.
Turning to “GCUGCAUUUGUGCUACUUUTT against 1110001A07Rik”, the z-score was inactive: -0.106.
GGCAGAAUCAGUUGAAAUUTT against Terf2ip: the z-score was inactive: -0.709.
Consider GGACAGCAAUAUUACACGUTT against Zfp39, for which the z-score is inactive: 1.79.
Consider GGGAGUCACGAAAUUACAATT against Slco6c1, for which the z-score is inactive: -0.578.
The same measure for GGGCUCUUAUAACUCUUUATT against Calm4: inactive: 0.313; for GGAAGAAAAGGGAUAUCAGTT against Cmya1: inactive: 0.251; for GACUUACUUGCAUCACUGATT against V1rc21: inactive: 0.554.
The same measure for GGACACGCUUCAAAUGGAUTT against Lcmt1: inactive: 0.97; for GCAUGUUGAUCAAGACUUGTT against Cdk6: inactive: -0.156.
For the sequence GGCUAUACUCUGAAUUCAATT against Zfp61, the z-score was inactive: -0.21.
Regarding GGCCUUAUGGAGUAAACUUTT against Ang3, the z-score is inactive: -1.04.
As for UUAUAUCCUGCCUUCUAUUTT against Psg28, the z-score is inactive: -0.315.
Turning to GGAUACAACUCCUGUGAUGTT against Hbp1, the z-score was inactive: 0.349.
The figure for GGUGAAAAACAACAUCUGCTT against Coq4 is inactive: 0.0981; for GGACAGAAUGCUGAUGUUUTT against Rgl1 it is inactive: -1.55; for CGCAAGCCUGACAUACUGCTT against Etv3 it is inactive: -1.42.
For GGAAGGCAUAAGAAAACUGTT against Tbk1, the z-score was inactive: 0.774.
The figure for GGAGCUGUUUCCAGUUCAGTT against Tomm40 is inactive: -1.85; for CCGUGUUCCGAGGAUAUGUTT against Cyp2e1 it is inactive: 0.513.
“GGUGAAGAUUGAGAAGGAGTT against 2810401C16Rik”: the z-score is inactive: -0.799.
As for GGUCGCACAAGGUAUUAUATT against LOC224833, the z-score is inactive: 1.52.
